Measurements as given in US20150044237A1 (CENTRE NATIONAL DE LA RECHERCHE SCIENTIFIQUE, published 2015).
Results are given in words; binding and its absence hold for the method and conditions named. For some assays here: Binding seen in cells or lysates may run through a third protein. Some results given as binding are weak or reduced against the parent protein; the word gives no strength.

The chains behind the UniProt entries cited, without tags or fusion partners. Residues count along the entry.
UniProt P25445, residues 26-173: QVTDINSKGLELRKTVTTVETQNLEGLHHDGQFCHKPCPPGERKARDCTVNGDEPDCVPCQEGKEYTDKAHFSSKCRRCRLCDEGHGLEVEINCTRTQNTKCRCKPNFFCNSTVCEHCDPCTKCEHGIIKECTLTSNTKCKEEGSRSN
UniProt P48023, residues 127-281: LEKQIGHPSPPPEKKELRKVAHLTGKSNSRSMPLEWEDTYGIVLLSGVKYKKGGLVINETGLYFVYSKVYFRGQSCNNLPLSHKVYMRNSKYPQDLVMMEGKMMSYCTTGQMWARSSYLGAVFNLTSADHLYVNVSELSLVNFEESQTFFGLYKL

Legend:
[1] = molecular target: Recombinant Fas-Fc (R&Dsystems) (UniProt P25445); assay: SPR (BIAcore 3000), Fas-Fc immobilised on the chip, analyte at 44 nM (highest concentration tested) [2) C]
[2] = molecular target: polymeric Flag-tagged soluble FasL (pfFasL) (human); assay: co-immunoprecipitation of untagged sFasL with Flag-tagged pfFasL by anti-Flag, anti-FasL immunoblot and densitometry
CD80-pFasL (human) [3] = assay: co-immunoprecipitation with anti-CD80 antibody, anti-FasL immunoblot
[4] = molecular target: polymeric Flag-tagged soluble FasL (pfFasL) (human); assay: co-immunoprecipitation with anti-Flag antibody, anti-FasL immunoblot
CD80-pFasL (human) [5] = assay: co-immunoprecipitation of sFasL with CD80-pFasL by anti-CD80 after co-transfection, anti-FasL immunoblot

Substance | binding [1] | binding [2] | binding (CD80-pFasL (human) [3]) | binding [4] | binding (CD80-pFasL (human) [5])
cleaved FasL (cFasL) (from UniProt P48023 127-281) (ligand) | binds |  |  |  | 
soluble FasL (sFasL) (from UniProt P48023 108-281) (ligand) |  | binds | binds | binds | binds
